Data as given in PubChem BioAssay AID504793 (Drosophila RNAi Screening Center, 2011)
In all, the deposit lists about 23,000 reagents; below is an unselected part of those with a known target gene and a result. In the full data, 62 (0.27%) are marked active. 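Calls come from follow-up tests whose scores are not deposited, so confirmed genes may have low counts here; counts are not normalised per plate.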 Raw values vary from plate to plate and are shown uncorrected.

- Aim: 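Whole-genome screen for parts of the DNA damage checkpoint at G2/M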 (primary screen)
- System: Drosophila S2R+ cells
- Reagents: long dsRNA against Drosophila genes, about 0.25 µg dsRNA per well
- Time to read-out: 4 days of dsRNA, then 4 hours of drug before read-out
- Treatment: doxorubicin 0.5 µM for 4 hours to cause double-strand breaks, in cells also given a low, harmless dose of dsRNA against nbs to sensitise the assay
- Detection: 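Per-well count of mitotic cells stained for phospho-histone H3 after doxorubicin exposure, used as mitotic index; counts are raw and not normalised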
- Reading the numbers: mitotic cells: higher = more cells in mitosis, weaker G2 arrest
- Rule for the call: 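a call needs confirmation in secondary tests, with other dsRNAs and a check of mitotic timing without damage, not just a high primary count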
- Meaning of the calls: active = confirmed in follow-up tests; inactive = not confirmed

Against CPT2 [DRSC08553] the deposit lists mitotic cells, replicate 1 = 7; inactive.
CG14314 [DRSC14793] showed mitotic cells, replicate 1 = 10; inactive.
Against lov [DRSC04279], the values are mitotic cells, replicate 1 = 3; inactive.
Against lov [DRSC04665], the entry reads mitotic cells, replicate 1 = 15; inactive.
Depletion of lov [DRSC27208] gave: mitotic cells, replicate 1 = 8; inactive.
Against BomS3 [DRSC21458], the values are mitotic cells, replicate 1 = 12; inactive.
BomS3 [DRSC28620] showed mitotic cells, replicate 1 = 2; inactive.
Rad9 [DRSC11263] gave mitotic cells, replicate 1 = 9; inactive.
With knock-down of CG6765 [DRSC10706], the record shows mitotic cells, replicate 1 = 4; inactive.
CG6765 [DRSC24612] showed mitotic cells, replicate 1 = 5; inactive.
Knock-down of CG4709 [DRSC02772] gave: mitotic cells, replicate 1 = 6; inactive.
Depletion of Rab21 [DRSC20968] came out at: mitotic cells, replicate 1 = 10; inactive.
Depletion of Rab21 [DRSC28617] came out at: mitotic cells, replicate 1 = 1; inactive.
For Pkc98E [DRSC16791], the values are mitotic cells, replicate 1 = 3; inactive.
With knock-down of Pkc98E [DRSC28311] the results were mitotic cells, replicate 1 = 6; inactive.
With knock-down of Rtc1 [DRSC20285] the results were mitotic cells, replicate 1 = 11; inactive.
For IFT54 [DRSC15469], the entry reads mitotic cells, replicate 1 = 5; inactive.
stretch (retired record) [DRSC14512] showed mitotic cells, replicate 1 = 4; inactive.
Against stretch (retired record) [DRSC14541], the entry reads mitotic cells, replicate 1 = 13; inactive.
stretch (retired record) [DRSC14542] gave mitotic cells, replicate 1 = 9; inactive.
Knock-down of stretch (retired record) [DRSC14543] gave: mitotic cells, replicate 1 = 5; inactive.
stretch (retired record) [DRSC23038] showed mitotic cells, replicate 1 = 5; inactive.
Depletion of stretch (retired record) [DRSC28624] came out at: mitotic cells, replicate 1 = 4; inactive.
With knock-down of stretch (retired record) [DRSC29228] the results were mitotic cells, replicate 1 = 4; inactive.
stretch (retired record) [DRSC36547] scored mitotic cells, replicate 1 = 4; inactive.

Entries above whose gene name begins with S or s:
stretch (retired record) [DRSC14512] — mitotic cells, replicate 1 = 4; Outcome = inactive
stretch (retired record) [DRSC14541] — mitotic cells, replicate 1 = 13; Outcome = inactive
stretch (retired record) [DRSC14542] — mitotic cells, replicate 1 = 9; Outcome = inactive
stretch (retired record) [DRSC14543] — mitotic cells, replicate 1 = 5; Outcome = inactive
stretch (retired record) [DRSC23038] — mitotic cells, replicate 1 = 5; Outcome = inactive
stretch (retired record) [DRSC28624] — mitotic cells, replicate 1 = 4; Outcome = inactive
stretch (retired record) [DRSC29228] — mitotic cells, replicate 1 = 4; Outcome = inactive
stretch (retired record) [DRSC36547] — mitotic cells, replicate 1 = 4; Outcome = inactive
